Residue numbers refer to the chain shown, from its start. No constants are given. Whether binding was seen depends on the method and setting. Some results given as binding are weak or reduced against the parent protein; the word gives no strength. Values belong to the binder of their own block, whether it stands above or below them.
Biological target: T1, human IL-8 (interleukin-8) (human, UniProt P10145 28-99, limits assumed)
T1 construct: also called recombinant human IL-8
T1 sequence (looked up): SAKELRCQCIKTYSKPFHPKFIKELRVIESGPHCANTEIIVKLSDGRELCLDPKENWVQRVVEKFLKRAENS
Assay: ELISA

- binding: binds
B1: humanized antibody A0L0 (antibody, human IgG1, kappa, V domains shown)
VH: QVQLVQSGAEVKKPGASVKVSCKASGYTFTSYWMHWVRQAPGQGLEWMGEIDPSDSNTNYNQKFKGRVTMTRDTSISTAYMELSRLRSDDTAVYYCARELLHAVYWGQGTLVTVSS
VL: DIQMTQSPSSLSASVGDRVTITCTASQDIHKYISWYQQKPGKAPKLLIYDTSTLQPGVPSRFSGSGSGTDFTFTISSLQPEDIATYYCLQYDNLWTFGQGTKVEIKR
notes: Humanized 1C1.5E5, human IgG1/kappa

- binding: binds
B2: humanized antibody A1L0 (antibody, human IgG1, kappa, V domains shown)
VH: B1 VH with R67K
VL: B1 VL
notes: Humanized 1C1.5E5, human IgG1/kappa; also called AIL0

From US20110105724A1 (published 2011)
